Laboratory results published in the supplement of paper PMC10849652.
Some of the results follow.

Protein sequences, listed by entry. Tags and fused reporters are not part of them. Lines headed by an entry give the natural chain unless they say otherwise; changes in a name come on top.
UniProt P60174, whole entry, looked up: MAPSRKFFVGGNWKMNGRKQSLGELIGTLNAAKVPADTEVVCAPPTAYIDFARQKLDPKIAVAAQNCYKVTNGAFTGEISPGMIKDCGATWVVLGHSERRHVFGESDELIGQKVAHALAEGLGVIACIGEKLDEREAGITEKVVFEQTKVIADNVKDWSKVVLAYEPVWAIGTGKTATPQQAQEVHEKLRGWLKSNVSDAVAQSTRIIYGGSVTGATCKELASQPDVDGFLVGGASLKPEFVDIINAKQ
UniProt Q9NYL9: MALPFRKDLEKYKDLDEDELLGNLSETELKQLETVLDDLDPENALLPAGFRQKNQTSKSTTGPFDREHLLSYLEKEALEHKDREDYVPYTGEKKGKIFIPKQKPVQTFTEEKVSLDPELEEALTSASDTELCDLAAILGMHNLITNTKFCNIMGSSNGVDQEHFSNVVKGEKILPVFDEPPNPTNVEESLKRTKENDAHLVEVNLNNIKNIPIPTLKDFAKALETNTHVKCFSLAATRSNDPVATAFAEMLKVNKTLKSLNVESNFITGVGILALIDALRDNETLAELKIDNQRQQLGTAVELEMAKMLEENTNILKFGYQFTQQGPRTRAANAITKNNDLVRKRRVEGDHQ
UniProt Q5JTV8: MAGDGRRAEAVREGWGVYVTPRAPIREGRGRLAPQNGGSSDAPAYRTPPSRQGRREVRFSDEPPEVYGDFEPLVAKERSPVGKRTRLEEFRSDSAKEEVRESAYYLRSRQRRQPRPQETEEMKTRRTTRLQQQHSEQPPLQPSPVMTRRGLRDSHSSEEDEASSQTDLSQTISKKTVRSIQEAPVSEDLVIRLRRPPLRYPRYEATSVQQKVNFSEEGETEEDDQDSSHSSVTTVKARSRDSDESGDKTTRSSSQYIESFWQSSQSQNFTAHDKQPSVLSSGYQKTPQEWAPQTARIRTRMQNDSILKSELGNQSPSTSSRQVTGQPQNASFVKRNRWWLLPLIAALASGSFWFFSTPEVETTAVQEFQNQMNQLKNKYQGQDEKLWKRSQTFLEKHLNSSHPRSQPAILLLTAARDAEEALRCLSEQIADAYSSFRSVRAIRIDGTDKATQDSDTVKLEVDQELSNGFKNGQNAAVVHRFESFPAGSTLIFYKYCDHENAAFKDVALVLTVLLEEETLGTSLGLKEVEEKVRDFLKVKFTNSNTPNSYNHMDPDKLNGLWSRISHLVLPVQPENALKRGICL
UniProt Q8NFQ8: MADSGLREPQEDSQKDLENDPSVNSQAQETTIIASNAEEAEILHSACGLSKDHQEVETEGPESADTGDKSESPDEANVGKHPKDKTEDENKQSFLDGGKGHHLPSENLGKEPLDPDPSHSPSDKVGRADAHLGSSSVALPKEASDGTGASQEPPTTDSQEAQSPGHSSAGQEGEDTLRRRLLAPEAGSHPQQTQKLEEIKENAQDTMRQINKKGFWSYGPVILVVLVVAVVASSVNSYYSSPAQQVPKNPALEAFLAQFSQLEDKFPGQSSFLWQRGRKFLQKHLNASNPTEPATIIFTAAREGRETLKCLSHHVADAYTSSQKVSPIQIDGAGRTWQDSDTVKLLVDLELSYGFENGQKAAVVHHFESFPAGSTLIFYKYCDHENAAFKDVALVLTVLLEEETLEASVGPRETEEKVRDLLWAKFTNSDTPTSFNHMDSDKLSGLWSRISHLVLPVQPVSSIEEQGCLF
UniProt P09493, whole entry, looked up: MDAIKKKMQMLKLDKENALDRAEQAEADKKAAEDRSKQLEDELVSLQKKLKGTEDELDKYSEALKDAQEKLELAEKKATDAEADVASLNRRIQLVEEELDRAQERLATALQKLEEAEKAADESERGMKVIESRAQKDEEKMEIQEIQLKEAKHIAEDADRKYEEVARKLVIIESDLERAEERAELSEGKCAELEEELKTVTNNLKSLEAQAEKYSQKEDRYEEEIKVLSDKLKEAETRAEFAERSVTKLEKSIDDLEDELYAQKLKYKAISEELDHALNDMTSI
UniProt P67936, whole entry, looked up: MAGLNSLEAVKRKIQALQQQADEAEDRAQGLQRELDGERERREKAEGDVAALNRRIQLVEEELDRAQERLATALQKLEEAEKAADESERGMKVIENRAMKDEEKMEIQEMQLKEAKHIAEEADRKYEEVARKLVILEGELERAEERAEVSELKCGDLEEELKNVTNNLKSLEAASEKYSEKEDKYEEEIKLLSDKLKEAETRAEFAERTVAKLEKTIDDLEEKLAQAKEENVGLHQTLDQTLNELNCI
UniProt Q6ZXV5: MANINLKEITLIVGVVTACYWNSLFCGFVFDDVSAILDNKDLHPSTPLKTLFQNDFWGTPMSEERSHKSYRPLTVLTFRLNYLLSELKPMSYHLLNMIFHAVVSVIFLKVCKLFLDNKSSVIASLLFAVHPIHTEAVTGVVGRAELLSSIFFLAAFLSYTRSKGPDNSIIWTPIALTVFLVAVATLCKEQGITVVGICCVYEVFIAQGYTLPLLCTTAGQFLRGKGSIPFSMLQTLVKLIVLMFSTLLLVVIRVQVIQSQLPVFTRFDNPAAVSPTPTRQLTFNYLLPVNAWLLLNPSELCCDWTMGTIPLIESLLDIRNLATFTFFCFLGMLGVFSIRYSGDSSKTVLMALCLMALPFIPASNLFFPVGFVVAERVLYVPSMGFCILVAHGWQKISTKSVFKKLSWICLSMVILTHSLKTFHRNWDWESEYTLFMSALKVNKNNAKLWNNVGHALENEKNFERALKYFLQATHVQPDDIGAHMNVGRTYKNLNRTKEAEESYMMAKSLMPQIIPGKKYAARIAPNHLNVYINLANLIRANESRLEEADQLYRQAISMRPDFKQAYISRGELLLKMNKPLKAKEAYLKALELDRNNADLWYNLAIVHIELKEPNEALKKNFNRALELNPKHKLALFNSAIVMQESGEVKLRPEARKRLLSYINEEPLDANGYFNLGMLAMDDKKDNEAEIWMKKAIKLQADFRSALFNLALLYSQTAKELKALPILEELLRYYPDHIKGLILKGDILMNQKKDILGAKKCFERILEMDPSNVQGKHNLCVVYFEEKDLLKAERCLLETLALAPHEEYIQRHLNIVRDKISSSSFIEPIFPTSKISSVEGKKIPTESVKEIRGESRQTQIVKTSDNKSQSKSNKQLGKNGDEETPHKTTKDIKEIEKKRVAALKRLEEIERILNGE
UniProt P11387: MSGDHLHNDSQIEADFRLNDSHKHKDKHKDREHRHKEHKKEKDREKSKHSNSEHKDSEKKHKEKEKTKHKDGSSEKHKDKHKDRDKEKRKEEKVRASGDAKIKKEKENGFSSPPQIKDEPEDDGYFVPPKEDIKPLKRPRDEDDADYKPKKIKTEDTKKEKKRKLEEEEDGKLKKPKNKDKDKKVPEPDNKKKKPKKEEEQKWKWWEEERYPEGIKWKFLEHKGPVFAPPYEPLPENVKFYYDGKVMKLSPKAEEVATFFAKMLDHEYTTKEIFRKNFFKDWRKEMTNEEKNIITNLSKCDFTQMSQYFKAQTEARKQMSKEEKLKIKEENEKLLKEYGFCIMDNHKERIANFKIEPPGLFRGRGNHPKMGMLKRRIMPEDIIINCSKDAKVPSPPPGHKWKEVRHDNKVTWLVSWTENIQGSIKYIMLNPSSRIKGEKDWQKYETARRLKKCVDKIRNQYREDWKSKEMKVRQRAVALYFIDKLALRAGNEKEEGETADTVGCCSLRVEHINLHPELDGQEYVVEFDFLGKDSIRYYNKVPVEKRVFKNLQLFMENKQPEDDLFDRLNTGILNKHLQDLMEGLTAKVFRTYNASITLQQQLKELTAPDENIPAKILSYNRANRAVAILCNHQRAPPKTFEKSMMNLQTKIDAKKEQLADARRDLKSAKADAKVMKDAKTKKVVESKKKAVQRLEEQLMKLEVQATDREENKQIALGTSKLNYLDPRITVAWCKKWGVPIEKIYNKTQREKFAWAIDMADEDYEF
UniProt O94842: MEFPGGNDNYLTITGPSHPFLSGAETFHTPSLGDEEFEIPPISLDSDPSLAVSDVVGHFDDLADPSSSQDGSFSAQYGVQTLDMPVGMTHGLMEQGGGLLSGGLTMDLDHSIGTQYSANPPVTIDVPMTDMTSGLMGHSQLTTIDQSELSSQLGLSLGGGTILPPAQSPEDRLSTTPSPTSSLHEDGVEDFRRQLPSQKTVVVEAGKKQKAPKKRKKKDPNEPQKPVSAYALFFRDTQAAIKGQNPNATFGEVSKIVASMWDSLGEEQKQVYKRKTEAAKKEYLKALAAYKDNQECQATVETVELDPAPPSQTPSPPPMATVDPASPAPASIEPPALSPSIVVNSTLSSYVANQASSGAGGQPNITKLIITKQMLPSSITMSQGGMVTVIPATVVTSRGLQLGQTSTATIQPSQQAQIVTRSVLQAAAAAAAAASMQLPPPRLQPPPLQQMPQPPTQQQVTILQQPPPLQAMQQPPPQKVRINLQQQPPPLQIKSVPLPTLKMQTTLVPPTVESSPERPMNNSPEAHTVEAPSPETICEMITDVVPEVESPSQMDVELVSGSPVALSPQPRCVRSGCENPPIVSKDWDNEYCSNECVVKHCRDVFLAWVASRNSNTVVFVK
UniProt P28908: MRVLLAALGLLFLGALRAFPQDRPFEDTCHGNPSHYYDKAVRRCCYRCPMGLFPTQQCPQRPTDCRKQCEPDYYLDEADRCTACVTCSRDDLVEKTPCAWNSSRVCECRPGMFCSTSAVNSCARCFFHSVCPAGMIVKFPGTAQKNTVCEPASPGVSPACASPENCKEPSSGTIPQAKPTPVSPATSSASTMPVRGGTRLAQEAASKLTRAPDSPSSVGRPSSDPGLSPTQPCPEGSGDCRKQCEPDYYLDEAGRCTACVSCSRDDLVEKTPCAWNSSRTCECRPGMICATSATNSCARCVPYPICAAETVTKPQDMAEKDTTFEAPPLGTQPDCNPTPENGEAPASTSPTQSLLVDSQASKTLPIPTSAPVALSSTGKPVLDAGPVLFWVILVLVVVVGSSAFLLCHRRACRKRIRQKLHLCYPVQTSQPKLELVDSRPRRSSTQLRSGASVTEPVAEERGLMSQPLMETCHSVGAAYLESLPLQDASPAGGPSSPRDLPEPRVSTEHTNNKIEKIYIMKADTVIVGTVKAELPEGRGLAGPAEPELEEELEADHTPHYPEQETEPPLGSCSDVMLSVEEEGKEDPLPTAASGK
UniProt O94886: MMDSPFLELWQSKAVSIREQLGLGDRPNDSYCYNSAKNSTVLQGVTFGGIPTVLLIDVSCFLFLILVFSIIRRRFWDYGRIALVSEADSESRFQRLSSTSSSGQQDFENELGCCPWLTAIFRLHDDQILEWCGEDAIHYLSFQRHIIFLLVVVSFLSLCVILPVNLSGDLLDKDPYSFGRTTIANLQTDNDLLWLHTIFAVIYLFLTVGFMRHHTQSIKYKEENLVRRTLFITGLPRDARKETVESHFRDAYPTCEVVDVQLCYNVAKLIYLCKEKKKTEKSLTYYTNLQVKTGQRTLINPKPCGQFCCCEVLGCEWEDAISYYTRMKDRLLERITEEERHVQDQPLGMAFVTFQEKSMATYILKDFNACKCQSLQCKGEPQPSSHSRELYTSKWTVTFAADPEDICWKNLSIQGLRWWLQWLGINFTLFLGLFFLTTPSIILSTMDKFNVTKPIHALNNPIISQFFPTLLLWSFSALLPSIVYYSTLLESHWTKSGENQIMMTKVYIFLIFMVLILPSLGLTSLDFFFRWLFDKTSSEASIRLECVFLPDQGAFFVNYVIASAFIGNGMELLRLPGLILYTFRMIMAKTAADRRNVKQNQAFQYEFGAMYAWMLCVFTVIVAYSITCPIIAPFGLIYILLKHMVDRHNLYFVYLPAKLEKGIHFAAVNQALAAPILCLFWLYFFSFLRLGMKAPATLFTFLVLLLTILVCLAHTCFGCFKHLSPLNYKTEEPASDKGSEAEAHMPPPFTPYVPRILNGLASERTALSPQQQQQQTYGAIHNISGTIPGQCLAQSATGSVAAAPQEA
UniProt O43399: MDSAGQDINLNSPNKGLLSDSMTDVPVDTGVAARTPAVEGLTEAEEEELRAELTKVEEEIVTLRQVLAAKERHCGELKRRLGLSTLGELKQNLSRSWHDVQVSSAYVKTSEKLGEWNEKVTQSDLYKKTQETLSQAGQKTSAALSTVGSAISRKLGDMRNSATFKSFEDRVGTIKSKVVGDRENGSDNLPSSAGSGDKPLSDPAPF
UniProt Q86XT9, whole entry, looked up: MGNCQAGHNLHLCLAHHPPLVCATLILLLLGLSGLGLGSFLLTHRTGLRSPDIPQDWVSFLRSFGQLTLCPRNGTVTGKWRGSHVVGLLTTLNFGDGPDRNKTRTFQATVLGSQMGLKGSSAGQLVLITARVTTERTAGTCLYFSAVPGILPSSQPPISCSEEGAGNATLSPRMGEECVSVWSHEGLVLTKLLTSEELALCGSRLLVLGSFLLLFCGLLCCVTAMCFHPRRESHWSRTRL
UniProt O95379: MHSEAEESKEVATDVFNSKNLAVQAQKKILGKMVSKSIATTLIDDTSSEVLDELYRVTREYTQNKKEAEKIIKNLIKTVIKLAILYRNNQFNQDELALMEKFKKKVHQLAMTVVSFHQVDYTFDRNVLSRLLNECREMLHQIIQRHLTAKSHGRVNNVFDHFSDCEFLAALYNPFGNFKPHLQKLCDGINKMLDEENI

What follows are targets tested with CC(C)C1=C2N=C(C=C(N2N=C1)NCC3=CC=CC=C3)NCCCCCCN (assay: log2 fold change, soluble protein after heating vs DMSO (PISA); higher = thermal stabilisation; K562 lysate, 10 uM; active = over 0.2 and 3.5 SD of the protein, either way, in both replicates (recomputed)).
Outline: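 K562 pellets were dounce-homogenised in PBS pH 7.4 containing 1 mM MgCl2, and the crude extract, at 1 mg/mL protein, was exposed to 10 μM compound for 30 min. Aliquots were heated for 3 min across 48°C-58°C, pooled, brought to 0.5% NP-40 at 4°C and spun at 21,000xg for 90 min, with the supernatant taken as soluble protein. TMTpro 16plex LC-MS/MS with equalised channel sums quantified that protein. Values are log-two fold changes in thermal stability relative to solvent controls, taken from duplicates.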

log2 fold change, inactive:
TPI1 (UniProt P60174) 0.008
TMOD3 (UniProt Q9NYL9) -0.011
TOR1AIP1 isoform 3 (UniProt Q5JTV8) -0.007
TNPO1 (UniProt Q92973) 0.011
TPP2 (UniProt P29144) -0.012
TOR1AIP2 (UniProt Q8NFQ8) -0.017
TP53BP1 isoform 2 (UniProt Q12888) -0.023
TP53BP2 isoform 3 (UniProt Q13625) -0.019
TMEM245 (UniProt Q9H330) -0.043
TPM1 isoform 4 (UniProt P09493) -0.024
TPM4 (UniProt P67936) -0.023
TMTC3 (UniProt Q6ZXV5) -0.01
TOP2B isoform 2 (UniProt Q02880) -0.032
TOP1 (UniProt P11387) -0.023
TOX4 (UniProt O94842) -0.008
TNFRSF8 (UniProt P28908) -0.01
TMEM63A (UniProt O94886) -0.012
TPP2 (UniProt Q5VZU9) -0.041
TMEM199 (UniProt Q8N511) -0.003
TPD52L2 isoform 7 (UniProt O43399) -0.013
TOP2A isoform 4 (UniProt P11388) -0.034
TOP3A (UniProt Q13472) -0.044
TMEM219 (UniProt Q86XT9) -0.06
TMEM9B (UniProt Q9NQ34) 0.101
TMX3 (UniProt Q96JJ7) -0.018
TPR (UniProt P12270) -0.012
TMEM192 (UniProt Q8IY95) -0.052
TPX2 (UniProt Q9ULW0) 0.036
TNFRSF1B (UniProt P20333) 0.016
TPP1 (UniProt O14773) 0.001
TP53I3 (UniProt Q53FA7) 0.009
TMEM43 (UniProt Q9BTV4) -0.016
TNFAIP8 isoform 4 (UniProt O95379) -0.023

Quoted at random: two entries already listed.
log2 fold change, inactive:
TOP1 (UniProt P11387) -0.023
TPM1 isoform 4 (UniProt P09493) -0.024
